Assay results published in paper PMC10167072, “Human granzyme B binds Plasmodium falciparum Hsp70-x and mediates antiplasmodial activity in vitro” (Cell Stress & Chaperones, 2023).

Sequences of proteins named here, by UniProt entry; tags and fusion partners are left off. A change or cut given only in a name is not applied to a line headed by its entry. Residues count along the entry.
UniProt P0DMV8: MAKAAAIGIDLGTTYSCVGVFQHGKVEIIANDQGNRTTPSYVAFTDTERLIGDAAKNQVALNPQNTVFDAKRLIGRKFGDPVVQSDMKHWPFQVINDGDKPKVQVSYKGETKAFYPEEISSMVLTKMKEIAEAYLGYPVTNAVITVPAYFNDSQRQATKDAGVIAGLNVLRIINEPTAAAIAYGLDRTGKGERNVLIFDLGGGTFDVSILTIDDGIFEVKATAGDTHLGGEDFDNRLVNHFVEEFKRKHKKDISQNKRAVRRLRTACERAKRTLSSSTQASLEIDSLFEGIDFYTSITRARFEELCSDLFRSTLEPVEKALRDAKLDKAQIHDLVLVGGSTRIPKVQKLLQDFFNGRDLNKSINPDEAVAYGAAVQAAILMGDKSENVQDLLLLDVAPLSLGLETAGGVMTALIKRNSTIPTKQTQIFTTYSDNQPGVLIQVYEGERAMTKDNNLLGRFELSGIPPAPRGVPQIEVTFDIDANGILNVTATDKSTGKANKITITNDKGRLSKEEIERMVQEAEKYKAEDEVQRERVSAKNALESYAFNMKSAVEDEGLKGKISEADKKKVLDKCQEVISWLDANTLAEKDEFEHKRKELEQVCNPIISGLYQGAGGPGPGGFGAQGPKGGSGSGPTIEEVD
UniProt P02769, residues 25-607: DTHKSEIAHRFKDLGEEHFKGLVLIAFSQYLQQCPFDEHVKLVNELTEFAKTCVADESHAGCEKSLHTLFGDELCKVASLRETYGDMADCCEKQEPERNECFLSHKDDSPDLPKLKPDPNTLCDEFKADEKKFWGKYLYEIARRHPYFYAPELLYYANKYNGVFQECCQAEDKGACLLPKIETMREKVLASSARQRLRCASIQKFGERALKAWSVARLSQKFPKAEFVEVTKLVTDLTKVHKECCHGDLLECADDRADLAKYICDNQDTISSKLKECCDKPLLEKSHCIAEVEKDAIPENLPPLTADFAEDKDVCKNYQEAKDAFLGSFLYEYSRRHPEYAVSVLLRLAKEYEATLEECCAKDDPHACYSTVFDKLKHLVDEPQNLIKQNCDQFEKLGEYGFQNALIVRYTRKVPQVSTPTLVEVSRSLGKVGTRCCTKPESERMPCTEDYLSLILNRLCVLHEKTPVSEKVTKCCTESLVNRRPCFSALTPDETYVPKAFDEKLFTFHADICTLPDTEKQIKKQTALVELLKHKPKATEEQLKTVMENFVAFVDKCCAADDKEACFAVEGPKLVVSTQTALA
UniProt P10144: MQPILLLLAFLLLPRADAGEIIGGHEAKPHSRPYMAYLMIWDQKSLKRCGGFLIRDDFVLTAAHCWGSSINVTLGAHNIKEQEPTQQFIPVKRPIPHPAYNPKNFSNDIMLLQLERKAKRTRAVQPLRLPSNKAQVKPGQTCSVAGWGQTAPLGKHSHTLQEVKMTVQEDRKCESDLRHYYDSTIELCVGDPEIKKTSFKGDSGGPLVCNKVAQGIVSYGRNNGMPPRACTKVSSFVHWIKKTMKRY

Columns and labels:
[1] = biological target: T1, TKD motif of hHsp70 (14-mer peptide) (human); assay: ELISA; assay repeated with the TKD motifs of PfHsp70-x and hHsp70 and GrB; both purified
T1 sequence (peptide): TKDNNLLGRFELSG

[2] = biological target: T2, synthetic TKD peptide representing the 14-mer TKD motif of PfHsp70-x (P. falciparum); assay: as above
T2 sequence (peptide): TKDNNLLGKFQLEG

[3] = biological target: human Hsp70 (human) (UniProt P0DMV8); assay: ELISA; Hsp70 proteins (5 μg) adsorbed on the plate, GrB 0-1000 nM in 2.5% fat-free milk in TBS, 25 °C, 2 h, detected with α-GrB; repeated with 5 mM ATP/ADP; both purified
[4] = biological target: bovine serum albumin (bovine) (UniProt P02769); assay: far-Western, overlay or dot blot; slot blot: proteins or peptides (5, 10, 20 μg) immobilised on nitrocellulose, overlaid with GrB (10 μg/mL) in 5% fat-free milk overnight at 4 °C, detected with α-GrB; Hsp70s without nucleotide or with 5 mM ADP or ATP; both purified
[5] = biological target: human Hsp70 (human) (UniProt P0DMV8); assay: as above
[6] = biological target: T2, synthetic TKD peptide representing the 14-mer TKD motif of PfHsp70-x (P. falciparum); assay: as above

Substance: human granzyme B (from UniProt P10144) (enzyme)
- binding [1]: binds
- binding [2]: binds
- binding [3]: binds
- binding [4]: no binding (tested: 10 μg/mL GrB)
- binding [5]: binds
- binding [6]: binds

Results are given in words; binding and its absence hold for the method and conditions named. For part of these data: Binding can be weak; no strength is given.
